Results deposited as PubChem BioAssay AID1508597 (Cure First, 2020)
Screen: 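Survival screen with siRNA in ovarian cancer cells derived from patients, with or without rucaparib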 (primary screen). System: human ovarian carcinoma lines grown from tumours: OCI-P5x (papillary serous) and OCI-C5x (clear cell). Reagents: siRNA pool against human genes, 1.25 pmol siRNA per well. Duration: 72 h or 96 h, depending on the cell culture. Conditions: rucaparib 20 µM (about IC30) or vehicle, present until read-out. Rucaparib or vehicle: Rucaparib. Cell line: OCI-P5x (serous). Measurement: 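ATP luminescence measured at 72 or 96 h according to the culture, then normalised and expressed as percent viability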. Scale: viability, normalised: higher = more viable cells remaining. Rule for the call: 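a well counts as a hit if its normalised viability is under 80 percent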. Calls: active = viability under 80%; inactive = viability 80% or more.
This is an unselected part of the about 2,100 reagents, under one of the conditions tested. 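Calls flag viability under 80% in either arm, not effects specific to rucaparib; the reference for percent is not stated.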 A reagent listed more than once was tested more than once; the source does not tell the runs apart. Not given: the 100% reference.

target gene,technical replicate,"viability, normalised (%)",activity call
HDAC6,1,62.7,active
HDAC6,2,67,active
HDAC6,3,71.2,active
H4C13,1,70.5,active
H4C13,2,66.3,active
H4C13,3,56.8,active
MAGI1,1,89.6,inactive
MAGI1,2,85,inactive
MAGI1,3,56.6,active
HJURP,1,66.5,active
HJURP,2,74.7,active
HJURP,3,85.9,inactive
DPH7,1,79.4,active
DPH7,2,63.4,active
DPH7,3,61.5,active
HDAC4,1,81.5,inactive
HDAC4,2,66.1,active
HDAC4,3,84.1,inactive
TRIM24,1,73,active
TRIM24,1,119,inactive
TRIM24,2,74.6,active
TRIM24,2,106,inactive
TRIM24,3,68.7,active
TRIM24,3,82.5,inactive
PDZD2,1,86.6,inactive
PDZD2,2,101,inactive
PDZD2,3,96.3,inactive
UCKL1,1,51.8,active
UCKL1,2,59.7,active
UCKL1,3,42.3,active
CHMP4C,1,74.1,active
CHMP4C,2,71.2,active
CHMP4C,3,70.4,active
NQO2,1,77.5,active
NQO2,2,85.2,inactive
NQO2,3,83.6,inactive
MBD4,1,55.8,active
MBD4,1,68.1,active
MBD4,2,86.3,inactive
MBD4,2,54.8,active
MBD4,3,73.5,active
MBD4,3,56.2,active
L3MBTL1,1,41.8,active
L3MBTL1,2,51.8,active
L3MBTL1,3,38.3,active
ALDH18A1,1,94.5,inactive
ALDH18A1,2,95.1,inactive
ALDH18A1,3,83.3,inactive
PALB2,1,149,inactive
PALB2,1,30.7,active
PALB2,2,140,inactive
PALB2,2,31.5,active
PALB2,3,36.4,active
PALB2,3,122,inactive
RIPK2,1,79.5,active
RIPK2,2,94.3,inactive
RIPK2,3,98.9,inactive

A stretch of the results above, as a working copy:
target gene,technical replicate,"viability, normalised (%)",activity call
L3MBTL1,3,38.3,active
ALDH18A1,1,94.5,inactive
ALDH18A1,2,95.1,inactive
ALDH18A1,3,83.3,inactive
PALB2,1,149,inactive
PALB2,1,30.7,active
PALB2,2,140,inactive
PALB2,2,31.5,active
PALB2,3,36.4,active
